Values from PubChem BioAssay AID1259424 (University of Nebraska Medical Center, 2018)
Test: 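Find knockdowns that reproduce the expression shifts seen after KSR1 loss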 (primary screen). Cell system: human HCT116 colon cancer cells. Reagents: siRNA pool against human genes, 50 nM. Detection: 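Log2 levels of six mRNAs (branched-DNA multiplex), adjusted by two reference genes and the non-targeting median, then scored against the average KSR1 knockdown pattern as Pearson r and euclidean distance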. Direction: mean correlation with KSR1 profile and KSR1 correlation: higher = expression change more like KSR1 knockdown; mean distance from KSR1 profile: higher = expression change less like KSR1 knockdown.
The whole screen tested about 14,000 reagents; this is a part drawn at random. 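Higher correlation or smaller distance means closer resemblance to KSR1 loss; control wells, including KSR1 knockdowns, recur on many plates.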 No sequences are given here. The record does not give: the time to read-out.

Gene | mean correlation with KSR1 profile | mean distance from KSR1 profile | KSR1 correlation, replicate 1 | KSR1 correlation, replicate 2 | KSR1 correlation, replicate 3
NUP50 (nucleoporin 50) | -0.589 | 2.16 | -0.365 | -0.706 | -0.559
RABL6 (RAB, member RAS oncogene family like 6) | -0.28 | 1.55 | -0.135 | -0.528 | 0.25
SFMBT1 (Scm like with four mbt domains 1) | -0.595 | 1.76 | -0.49 | -0.593 | -0.601
AIRIM (AFG2 interacting ribosome maturation factor) | -0.501 | 2.2 | -0.324 | -0.509 | -0.411
RNMT (RNA guanine-7 methyltransferase) | -0.0582 | 1.52 | -0.339 | -0.113 | 0.183
GJB5 (gap junction protein beta 5) | -0.151 | 1.19 | 0.184 | -0.142 | -0.306
DCAF8 (DDB1 and CUL4 associated factor 8) | -0.083 | 2.89 | 0.0556 | -0.0841 | -0.125
HARS2 (histidyl-tRNA synthetase 2, mitochondrial) | -0.762 | 2.23 | -0.752 | -0.721 | -0.822
GNL1 (G protein nucleolar 1) | -0.159 | 1.88 | -0.233 | -0.09 | -0.346
APOBEC1 (apolipoprotein B mRNA editing enzyme catalytic subunit 1) | 0.188 | 2.28 | 0.108 | 0.0345 | 0.335
IFT172 (intraflagellar transport 172) | -0.475 | 2.48 | -0.849 | 0.0245 | -0.607
C21orf58 (chromosome 21 open reading frame 58) | 0.00607 | 1.97 | -0.117 | -0.0203 | -0.117
NACA (nascent polypeptide associated complex subunit alpha) | 0.575 | 0.808 | 0.457 | 0.639 | 0.639
MYH13 (myosin heavy chain 13) | 0.301 | 1.65 | 0.22 | -0.0893 | 0.465
PTPRC (protein tyrosine phosphatase receptor type C) | -0.0961 | 1.47 | 0.0216 | -0.397 | 0.094
KIF2C (kinesin family member 2C) | 0.196 | 2.27 | 0.0869 | 0.245 | 0.149
RAB3A (RAB3A, member RAS oncogene family) | -0.421 | 1.15 | -0.36 | -0.564 | -0.171
MST1R (macrophage stimulating 1 receptor) | 0.0495 | 3.12 | 0.0506 | 0.0136 | 0.124
ATP4B (ATPase H+/K+ transporting subunit beta) | -0.253 | 2.23 | -0.211 | -0.331 | -0.415
IL20 (interleukin 20) | -0.222 | 1.62 | -0.116 | -0.33 | -0.00231

Ordered by “KSR1 correlation, replicate 3” (low to high): 2 of the entries above.
Gene | mean correlation with KSR1 profile | mean distance from KSR1 profile | KSR1 correlation, replicate 1 | KSR1 correlation, replicate 2 | KSR1 correlation, replicate 3
PTPRC (protein tyrosine phosphatase receptor type C) | -0.0961 | 1.47 | 0.0216 | -0.397 | 0.094
KIF2C (kinesin family member 2C) | 0.196 | 2.27 | 0.0869 | 0.245 | 0.149
